Test results: article doi:10.1101/736389
Results are given in words; binding and its absence hold for the method and conditions named. In cells and extracts the contact can be indirect. Some entries that bind do so weakly or less than the wild type. Tags and fused reporters may be left off the sequences shown.

Amino acid sequences for entries named in this document (tags omitted). A change or cut given only in a name is not applied to a line headed by its entry. Residues count along the entry.
UniProt Q9UHB6: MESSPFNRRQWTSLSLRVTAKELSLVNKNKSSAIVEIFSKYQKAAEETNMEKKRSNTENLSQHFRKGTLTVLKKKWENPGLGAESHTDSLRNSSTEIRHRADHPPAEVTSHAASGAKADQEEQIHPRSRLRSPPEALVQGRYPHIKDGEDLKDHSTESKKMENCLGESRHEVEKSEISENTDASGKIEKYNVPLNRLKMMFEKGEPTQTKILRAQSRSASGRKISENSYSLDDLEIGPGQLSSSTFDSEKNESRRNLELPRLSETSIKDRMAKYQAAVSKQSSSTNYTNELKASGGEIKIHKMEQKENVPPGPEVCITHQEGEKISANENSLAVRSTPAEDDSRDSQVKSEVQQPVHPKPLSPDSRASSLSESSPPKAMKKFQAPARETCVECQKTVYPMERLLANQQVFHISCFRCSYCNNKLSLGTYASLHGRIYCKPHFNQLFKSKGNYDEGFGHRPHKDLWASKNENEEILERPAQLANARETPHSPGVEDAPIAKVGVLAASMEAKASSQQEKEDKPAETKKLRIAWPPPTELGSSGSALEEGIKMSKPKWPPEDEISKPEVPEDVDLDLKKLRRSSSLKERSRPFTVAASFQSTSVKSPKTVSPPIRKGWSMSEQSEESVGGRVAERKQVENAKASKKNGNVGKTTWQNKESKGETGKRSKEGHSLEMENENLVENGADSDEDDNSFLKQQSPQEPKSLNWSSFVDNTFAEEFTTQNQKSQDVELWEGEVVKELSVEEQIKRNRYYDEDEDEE
endogenous EPLIN isoform α: residues 161-759 of Q9UHB6

T1: GFP-tagged LUZP1 (human) (UniProt Q86V48)
T1 sequence: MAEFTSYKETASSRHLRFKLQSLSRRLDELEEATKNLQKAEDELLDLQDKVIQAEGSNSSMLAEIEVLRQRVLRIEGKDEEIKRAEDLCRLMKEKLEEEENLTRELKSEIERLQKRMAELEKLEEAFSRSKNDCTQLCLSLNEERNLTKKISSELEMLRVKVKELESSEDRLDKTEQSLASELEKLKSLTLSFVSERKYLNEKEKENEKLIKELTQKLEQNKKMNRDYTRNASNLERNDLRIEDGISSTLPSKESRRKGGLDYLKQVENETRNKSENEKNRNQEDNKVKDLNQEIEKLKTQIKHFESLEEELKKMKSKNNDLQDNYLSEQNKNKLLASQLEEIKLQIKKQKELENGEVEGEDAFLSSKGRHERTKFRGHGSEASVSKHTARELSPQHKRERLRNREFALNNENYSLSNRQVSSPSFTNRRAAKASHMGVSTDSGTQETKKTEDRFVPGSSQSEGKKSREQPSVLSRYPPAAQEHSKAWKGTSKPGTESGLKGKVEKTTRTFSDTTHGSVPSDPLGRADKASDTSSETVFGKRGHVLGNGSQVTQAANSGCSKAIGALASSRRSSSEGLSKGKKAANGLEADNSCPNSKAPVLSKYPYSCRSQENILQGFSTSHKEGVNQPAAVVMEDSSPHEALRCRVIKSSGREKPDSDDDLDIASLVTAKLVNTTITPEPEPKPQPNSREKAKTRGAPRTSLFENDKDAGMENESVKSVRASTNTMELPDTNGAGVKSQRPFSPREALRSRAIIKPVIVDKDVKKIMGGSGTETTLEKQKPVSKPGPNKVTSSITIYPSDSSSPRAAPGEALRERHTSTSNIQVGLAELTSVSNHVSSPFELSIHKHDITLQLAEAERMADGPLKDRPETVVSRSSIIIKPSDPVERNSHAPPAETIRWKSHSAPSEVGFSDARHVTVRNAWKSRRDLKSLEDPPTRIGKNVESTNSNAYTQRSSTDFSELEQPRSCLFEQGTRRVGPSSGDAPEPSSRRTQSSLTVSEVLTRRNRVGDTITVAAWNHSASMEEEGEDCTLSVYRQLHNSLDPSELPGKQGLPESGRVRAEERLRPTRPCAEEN

B1: FLAG-LUZP1 (full length) (protein, UniProt Q86V48-1 1-1076)
chain: T1 sequence
B2: FLAG-LUZP1 (aa 297-1076) (domain or fragment, UniProt Q86V48-1 297-1076)
chain: KLKTQIKHFESLEEELKKMKSKNNDLQDNYLSEQNKNKLLASQLEEIKLQIKKQKELENGEVEGEDAFLSSKGRHERTKFRGHGSEASVSKHTARELSPQHKRERLRNREFALNNENYSLSNRQVSSPSFTNRRAAKASHMGVSTDSGTQETKKTEDRFVPGSSQSEGKKSREQPSVLSRYPPAAQEHSKAWKGTSKPGTESGLKGKVEKTTRTFSDTTHGSVPSDPLGRADKASDTSSETVFGKRGHVLGNGSQVTQAANSGCSKAIGALASSRRSSSEGLSKGKKAANGLEADNSCPNSKAPVLSKYPYSCRSQENILQGFSTSHKEGVNQPAAVVMEDSSPHEALRCRVIKSSGREKPDSDDDLDIASLVTAKLVNTTITPEPEPKPQPNSREKAKTRGAPRTSLFENDKDAGMENESVKSVRASTNTMELPDTNGAGVKSQRPFSPREALRSRAIIKPVIVDKDVKKIMGGSGTETTLEKQKPVSKPGPNKVTSSITIYPSDSSSPRAAPGEALRERHTSTSNIQVGLAELTSVSNHVSSPFELSIHKHDITLQLAEAERMADGPLKDRPETVVSRSSIIIKPSDPVERNSHAPPAETIRWKSHSAPSEVGFSDARHVTVRNAWKSRRDLKSLEDPPTRIGKNVESTNSNAYTQRSSTDFSELEQPRSCLFEQGTRRVGPSSGDAPEPSSRRTQSSLTVSEVLTRRNRVGDTITVAAWNHSASMEEEGEDCTLSVYRQLHNSLDPSELPGKQGLPESGRVRAEERLRPTRPCAEEN
B3: FLAG-LUZP1 (aa 1-296) (domain or fragment, UniProt Q86V48-1 1-296)
chain: MAEFTSYKETASSRHLRFKLQSLSRRLDELEEATKNLQKAEDELLDLQDKVIQAEGSNSSMLAEIEVLRQRVLRIEGKDEEIKRAEDLCRLMKEKLEEEENLTRELKSEIERLQKRMAELEKLEEAFSRSKNDCTQLCLSLNEERNLTKKISSELEMLRVKVKELESSEDRLDKTEQSLASELEKLKSLTLSFVSERKYLNEKEKENEKLIKELTQKLEQNKKMNRDYTRNASNLERNDLRIEDGISSTLPSKESRRKGGLDYLKQVENETRNKSENEKNRNQEDNKVKDLNQEIE

Columns and labels:
GFP-tagged LUZP1 (human) = target: T1, GFP-tagged LUZP1 (human); test: co-IP
[1] = target: GFP-EPLINβ (expressed in HEK293 FLAG-LUZP1 lines) (human) (UniProt Q9UHB6); test: co-IP

Row | Molecule | binding (GFP-tagged LUZP1 (human)) | binding [1]
1 | endogenous EPLIN isoform α (from UniProt Q9UHB6-2 1-599) | binds | 
2 | endogenous EPLIN isoform β (from UniProt Q9UHB6 1-759) | binds | 
3 | B1 |  | binds
4 | B2 |  | binds
5 | B3 |  | no binding
